Results from patent US20160244802A1, “Protein Demethylases Comprising a JMJC Domain” (The University of North Carolina at Chapel Hill, priority 2005, published 2016).
No constants are given. Whether binding was seen depends on the method and setting. In cells and extracts the contact can be indirect. Tags and fused reporters may be left off the sequences shown.

Target: thyroid hormone receptor (TR)
Test: in vitro pull-down and co-immunoprecipitation

binding: no binding
B1: recombinant Flag-JHDM2A (JmjC domain-containing histone demethylase 2A) (enzyme, not shown: small tags and cut ends)
chain: MVLTLGESWPVLVGRRFLSLSAADGSDGSHDSWDVERVAEWPWLSGTIRAVSHTDVTKKDLKVCVEFDGESWRKRRWIEVYSLLRRAFLVEHNLVLAERKSPEISERIVQWPAITYKPLLDKAGLGSITSVRFLGDQQRVFLSKDLLKPIQDVNSLRLSLTDNQIVSKEFQALIVKHLDESHLLKGDKNLVGSEVKIYSLDPSTQWFSATVINGNPASKTLQVNCEEIPALKIVDPSLIHVEVVHDNLVTCGNSARIGAVKRKSSENNGTLVSKQAKSCSEASPSMCPVQSVPTTVFKEILLGCTAATPPSKDPRQQSTPQAANSPPNLGAKIPQGCHKQSLPEEISSCLNTKSEALRTKPDVCKAGLLSKSSQIGTGDLKILTEPKGSCTQPKTNTDQENRLESVPQALTGLPKECLPTKASSKAELEIANPPELQKHLEHAPSPSDVSNAPEVKAGVNSDSPNNCSGKKVEPSALACRSQNLKESSVKVDNESCCSRSNNKIQNAPSRKSVLTDPAKLKKLQQSGEAFVQDDSCVNIVAQLPKCRECRLDSLRKDKEQQKDSPVFCRFFHFRRLQFNKHGVLRVEGFLTPNKYDNEAIGLWLPLTKNVVGIDLDTAKYILANIGDHFCQMVISEKEAMSTIEPHRQVAWKRAVKGVREMCDVCDTTIFNLHWVCPRCGFGVCVDCYRMKRKNCQQGAAYKTFSWLKCVKSQIHEPENLMPTQIIPGKALYDVGDIVHSVRAKWGIKANCPCSNRQFKLFSKPASKEDLKQTSLAGEKPTLGAVLQQNPSVLEPAAVGGEAASKPAGSMKPACPASTSPLNWLADLTSGNVNKENKEKQPTMPILKNEIKCLPPLPPLSKSSTVLHTFNSTILTPVSNNNSGFLRNLLNSSTGKTENGLKNTPKILDDIFASLVQNKTTSDLSKRPQGLTIKPSILGFDTPHYWLCDNRLLCLQDPNNKSNWNVFRECWKQGQPVMVSGVHHKLNSELWKPESFRKEFGEQEVDLVNCRTNEIITGATVGDFWDGFEDVPNRLKNEKEPMVLKLKDWPPGEDFRDMMPSRFDDLMANIPLPEYTRRDGKLNLASRLPNYFVRPDLGPKMYNAYGLITPEDRKYGTTNLHLDVSDAANVMVYVGIPKGQCEQEEEVLKTIQDGDSDELTIKRFIEGKEKPGALWHIYAAKDTEKIREFLKKVSEEQGQENPADHDPIHDQSWYLDRSLRKRLHQEYGVQGWAIVQFLGDVVFIPAGAPHQVHNLYSCIKVAEDFVSPEHVKHCFWLTQEFRYLSQTHTNHEDKLQVKNVIYHAVKDAVAMLKASESSFGKP
